One test addresses T1, Drosha-flag (UniProt Q9NRR4).
T1 sequence: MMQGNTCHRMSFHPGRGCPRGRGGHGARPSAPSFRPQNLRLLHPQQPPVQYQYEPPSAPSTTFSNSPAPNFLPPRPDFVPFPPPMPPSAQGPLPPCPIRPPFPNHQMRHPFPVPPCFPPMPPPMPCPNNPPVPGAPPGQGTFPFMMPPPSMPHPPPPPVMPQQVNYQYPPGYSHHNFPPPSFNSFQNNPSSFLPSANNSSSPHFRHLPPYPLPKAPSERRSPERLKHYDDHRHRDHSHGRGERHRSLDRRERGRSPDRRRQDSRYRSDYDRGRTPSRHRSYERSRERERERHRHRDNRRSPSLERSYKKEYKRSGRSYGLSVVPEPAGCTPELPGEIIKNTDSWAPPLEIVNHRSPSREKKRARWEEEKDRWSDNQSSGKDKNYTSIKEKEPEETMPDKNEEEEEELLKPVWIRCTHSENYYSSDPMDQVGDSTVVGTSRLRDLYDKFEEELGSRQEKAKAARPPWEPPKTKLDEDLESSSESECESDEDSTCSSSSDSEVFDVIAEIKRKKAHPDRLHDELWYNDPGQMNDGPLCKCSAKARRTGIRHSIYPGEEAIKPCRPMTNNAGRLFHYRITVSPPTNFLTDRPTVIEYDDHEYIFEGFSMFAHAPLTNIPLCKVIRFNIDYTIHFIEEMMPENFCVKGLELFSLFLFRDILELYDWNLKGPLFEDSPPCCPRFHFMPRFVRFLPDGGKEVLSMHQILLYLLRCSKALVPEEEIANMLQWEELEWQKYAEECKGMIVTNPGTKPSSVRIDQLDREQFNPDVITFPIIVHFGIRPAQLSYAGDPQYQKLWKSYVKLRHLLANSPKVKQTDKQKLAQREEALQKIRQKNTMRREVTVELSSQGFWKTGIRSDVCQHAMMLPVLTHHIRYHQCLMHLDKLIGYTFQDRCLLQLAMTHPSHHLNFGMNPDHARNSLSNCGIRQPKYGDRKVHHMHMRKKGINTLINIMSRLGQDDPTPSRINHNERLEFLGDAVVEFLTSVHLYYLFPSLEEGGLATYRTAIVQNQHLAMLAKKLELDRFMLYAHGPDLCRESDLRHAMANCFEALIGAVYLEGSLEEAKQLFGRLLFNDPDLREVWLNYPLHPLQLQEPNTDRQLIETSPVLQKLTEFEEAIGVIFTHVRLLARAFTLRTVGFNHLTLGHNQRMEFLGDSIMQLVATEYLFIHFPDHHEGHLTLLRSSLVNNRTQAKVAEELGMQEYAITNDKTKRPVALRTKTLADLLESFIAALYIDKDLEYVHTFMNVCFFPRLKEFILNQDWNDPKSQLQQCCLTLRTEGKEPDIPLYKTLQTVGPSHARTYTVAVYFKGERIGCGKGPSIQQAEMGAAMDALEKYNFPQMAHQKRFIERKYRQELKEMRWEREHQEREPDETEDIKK
Kind of test: co-IP; HEK293 cells transfected with Drosha-flag; 600 ug lysate with 3 ug anti-Flag M2 or anti-DDX3X antibody or normal IgG at 4 °C overnight, protein A or G sepharose, three washes with IP buffer, Western blot.

Amino acid sequences for entries named in this document (tags omitted).
UniProt Q9UPY3: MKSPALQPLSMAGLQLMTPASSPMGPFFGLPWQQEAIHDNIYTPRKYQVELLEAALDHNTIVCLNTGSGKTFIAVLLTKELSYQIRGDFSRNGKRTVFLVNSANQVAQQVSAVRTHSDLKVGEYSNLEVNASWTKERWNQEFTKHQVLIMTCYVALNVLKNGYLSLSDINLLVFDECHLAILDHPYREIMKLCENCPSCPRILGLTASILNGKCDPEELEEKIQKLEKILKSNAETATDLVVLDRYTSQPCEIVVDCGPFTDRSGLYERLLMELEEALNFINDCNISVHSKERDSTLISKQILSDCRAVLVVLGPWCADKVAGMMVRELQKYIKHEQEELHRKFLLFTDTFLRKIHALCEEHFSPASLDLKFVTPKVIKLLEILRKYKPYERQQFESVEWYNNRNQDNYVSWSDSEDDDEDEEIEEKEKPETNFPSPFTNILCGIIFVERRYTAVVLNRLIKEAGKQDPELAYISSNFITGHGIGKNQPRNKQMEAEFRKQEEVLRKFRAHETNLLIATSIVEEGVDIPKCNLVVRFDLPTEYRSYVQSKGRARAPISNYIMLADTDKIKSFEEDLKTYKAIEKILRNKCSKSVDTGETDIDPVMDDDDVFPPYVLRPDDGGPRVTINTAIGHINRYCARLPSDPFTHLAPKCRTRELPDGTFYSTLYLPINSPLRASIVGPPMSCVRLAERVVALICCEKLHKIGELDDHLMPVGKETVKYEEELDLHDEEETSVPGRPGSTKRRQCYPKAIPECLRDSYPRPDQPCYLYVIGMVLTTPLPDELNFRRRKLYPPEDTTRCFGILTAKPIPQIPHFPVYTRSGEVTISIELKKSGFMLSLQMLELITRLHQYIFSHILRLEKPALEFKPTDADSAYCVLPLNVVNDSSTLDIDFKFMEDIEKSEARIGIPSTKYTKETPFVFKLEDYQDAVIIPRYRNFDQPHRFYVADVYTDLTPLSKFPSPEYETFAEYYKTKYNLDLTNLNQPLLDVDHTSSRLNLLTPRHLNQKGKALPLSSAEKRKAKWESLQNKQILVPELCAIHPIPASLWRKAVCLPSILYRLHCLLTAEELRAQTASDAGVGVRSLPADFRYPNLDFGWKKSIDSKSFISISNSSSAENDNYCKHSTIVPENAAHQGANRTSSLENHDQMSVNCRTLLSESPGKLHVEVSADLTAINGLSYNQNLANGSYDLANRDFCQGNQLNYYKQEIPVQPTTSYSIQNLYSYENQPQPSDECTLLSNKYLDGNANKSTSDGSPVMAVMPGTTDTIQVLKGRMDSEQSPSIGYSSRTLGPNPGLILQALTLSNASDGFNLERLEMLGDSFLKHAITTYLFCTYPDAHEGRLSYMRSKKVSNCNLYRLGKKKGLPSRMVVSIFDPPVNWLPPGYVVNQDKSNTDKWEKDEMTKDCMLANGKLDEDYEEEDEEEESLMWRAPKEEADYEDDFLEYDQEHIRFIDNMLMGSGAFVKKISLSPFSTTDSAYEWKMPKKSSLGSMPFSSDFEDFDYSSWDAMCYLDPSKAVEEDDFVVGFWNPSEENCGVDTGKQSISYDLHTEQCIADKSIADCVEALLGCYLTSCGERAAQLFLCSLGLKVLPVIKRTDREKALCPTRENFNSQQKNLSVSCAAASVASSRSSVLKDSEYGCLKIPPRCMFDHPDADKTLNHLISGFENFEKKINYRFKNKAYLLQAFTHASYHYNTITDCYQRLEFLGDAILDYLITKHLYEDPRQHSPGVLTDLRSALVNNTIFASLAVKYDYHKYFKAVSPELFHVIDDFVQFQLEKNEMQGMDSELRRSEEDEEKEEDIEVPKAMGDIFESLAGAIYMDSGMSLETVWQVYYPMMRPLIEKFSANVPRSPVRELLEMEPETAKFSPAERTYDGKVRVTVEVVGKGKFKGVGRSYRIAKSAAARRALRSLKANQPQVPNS
UniProt O00571: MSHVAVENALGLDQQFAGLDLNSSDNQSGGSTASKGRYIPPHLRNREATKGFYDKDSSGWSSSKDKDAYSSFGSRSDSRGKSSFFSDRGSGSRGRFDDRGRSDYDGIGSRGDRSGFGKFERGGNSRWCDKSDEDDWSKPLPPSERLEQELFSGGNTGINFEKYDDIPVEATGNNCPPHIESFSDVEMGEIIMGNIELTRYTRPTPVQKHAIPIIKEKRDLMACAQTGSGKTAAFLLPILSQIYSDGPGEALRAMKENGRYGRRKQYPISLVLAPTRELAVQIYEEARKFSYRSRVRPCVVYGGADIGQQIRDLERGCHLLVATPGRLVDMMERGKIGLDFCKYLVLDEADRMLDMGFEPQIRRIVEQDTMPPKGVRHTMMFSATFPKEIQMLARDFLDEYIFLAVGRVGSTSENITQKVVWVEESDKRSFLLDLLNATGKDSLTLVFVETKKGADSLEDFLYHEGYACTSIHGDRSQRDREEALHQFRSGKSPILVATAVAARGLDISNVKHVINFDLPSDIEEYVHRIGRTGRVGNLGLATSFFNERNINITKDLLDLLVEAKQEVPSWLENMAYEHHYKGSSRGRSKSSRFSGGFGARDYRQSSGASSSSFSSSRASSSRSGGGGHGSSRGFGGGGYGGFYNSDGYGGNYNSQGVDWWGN

In test [1] the target is Dicer (human (endogenous in HEK293)) (UniProt Q9UPY3). Put plainly: co-IP; Dicer-IP from HEK293 lysate (600 ug lysate, 3 ug antibody or normal IgG, 4 °C overnight, protein A or G sepharose), Western blot for DDX3X. Background: Immunoblotting shows a protein as a band on a membrane.
Test [2] addresses DDX3X (human (endogenous in HEK293)) (UniProt O00571). Put plainly: co-IP; HEK293 cells transfected with Drosha-flag; 600 ug lysate with 3 ug anti-Flag M2 or anti-DDX3X antibody or normal IgG at 4 °C overnight, protein A or G sepharose, three washes with IP buffer, Western blot.

Results are given in words; binding and its absence hold for the method and conditions named. In cells and extracts the contact can be indirect. Some binding calls cover weakened binding; strength is not graded here. For part of these data: Tags and fused reporters may be left off the sequences shown.

DDX3X (from UniProt O00571 1-662): the values for the binding result (with Drosha-flag; in test [1]) were “binds” and “no binding”, respectively.

B1: Drosha-flag (protein, UniProt Q9NRR4 1-1374)
chain: MMQGNTCHRMSFHPGRGCPRGRGGHGARPSAPSFRPQNLRLLHPQQPPVQYQYEPPSAPSTTFSNSPAPNFLPPRPDFVPFPPPMPPSAQGPLPPCPIRPPFPNHQMRHPFPVPPCFPPMPPPMPCPNNPPVPGAPPGQGTFPFMMPPPSMPHPPPPPVMPQQVNYQYPPGYSHHNFPPPSFNSFQNNPSSFLPSANNSSSPHFRHLPPYPLPKAPSERRSPERLKHYDDHRHRDHSHGRGERHRSLDRRERGRSPDRRRQDSRYRSDYDRGRTPSRHRSYERSRERERERHRHRDNRRSPSLERSYKKEYKRSGRSYGLSVVPEPAGCTPELPGEIIKNTDSWAPPLEIVNHRSPSREKKRARWEEEKDRWSDNQSSGKDKNYTSIKEKEPEETMPDKNEEEEEELLKPVWIRCTHSENYYSSDPMDQVGDSTVVGTSRLRDLYDKFEEELGSRQEKAKAARPPWEPPKTKLDEDLESSSESECESDEDSTCSSSSDSEVFDVIAEIKRKKAHPDRLHDELWYNDPGQMNDGPLCKCSAKARRTGIRHSIYPGEEAIKPCRPMTNNAGRLFHYRITVSPPTNFLTDRPTVIEYDDHEYIFEGFSMFAHAPLTNIPLCKVIRFNIDYTIHFIEEMMPENFCVKGLELFSLFLFRDILELYDWNLKGPLFEDSPPCCPRFHFMPRFVRFLPDGGKEVLSMHQILLYLLRCSKALVPEEEIANMLQWEELEWQKYAEECKGMIVTNPGTKPSSVRIDQLDREQFNPDVITFPIIVHFGIRPAQLSYAGDPQYQKLWKSYVKLRHLLANSPKVKQTDKQKLAQREEALQKIRQKNTMRREVTVELSSQGFWKTGIRSDVCQHAMMLPVLTHHIRYHQCLMHLDKLIGYTFQDRCLLQLAMTHPSHHLNFGMNPDHARNSLSNCGIRQPKYGDRKVHHMHMRKKGINTLINIMSRLGQDDPTPSRINHNERLEFLGDAVVEFLTSVHLYYLFPSLEEGGLATYRTAIVQNQHLAMLAKKLELDRFMLYAHGPDLCRESDLRHAMANCFEALIGAVYLEGSLEEAKQLFGRLLFNDPDLREVWLNYPLHPLQLQEPNTDRQLIETSPVLQKLTEFEEAIGVIFTHVRLLARAFTLRTVGFNHLTLGHNQRMEFLGDSIMQLVATEYLFIHFPDHHEGHLTLLRSSLVNNRTQAKVAEELGMQEYAITNDKTKRPVALRTKTLADLLESFIAALYIDKDLEYVHTFMNVCFFPRLKEFILNQDWNDPKSQLQQCCLTLRTEGKEPDIPLYKTLQTVGPSHARTYTVAVYFKGERIGCGKGPSIQQAEMGAAMDALEKYNFPQMAHQKRFIERKYRQELKEMRWEREHQEREPDETEDIKK
Consider B1, for which the binding entry in test [2] is on record as “binds”.

These data come from article PMC5009351.
